In patent US20050208496A1, “Methods of testing for bronchial asthma or chronic obstructive pulmonary disease” (Genox Research, Inc., priority 2002, published 2005) one finds 1st, 2nd and 3rd data, which are given here for two substances.

For the data set, the system named is mouse counterpart genes. As to the kind of experiment: Mouse GeneChip (MG-U74A to MG-U74C) analysis of lung and trachea of the OVA antigen-exposed bronchial hypersensitivity model, S-Sal group versus S-OVA group. It counts as in vivo. To be noted: MASM5, mouse GeneChip expression ratio of the mouse counterpart gene (probe); for 1st: 1st experiment; for 2nd: 2nd experiment; for 3rd: 3rd experiment.

In the case of amphiregulin, the 1st worked out at 0.8, the 2nd is listed as 0.56 and the 3rd is on record as 0.7.

ceruloplasmin: the 1st is 1.6, the 2nd is listed as 3.1 and the 3rd came out at 2.2.
